Assay results: publication PMC4177551

The chains behind the UniProt entries cited, without tags or fusion partners. Residues count along the entry.
UniProt Q13123: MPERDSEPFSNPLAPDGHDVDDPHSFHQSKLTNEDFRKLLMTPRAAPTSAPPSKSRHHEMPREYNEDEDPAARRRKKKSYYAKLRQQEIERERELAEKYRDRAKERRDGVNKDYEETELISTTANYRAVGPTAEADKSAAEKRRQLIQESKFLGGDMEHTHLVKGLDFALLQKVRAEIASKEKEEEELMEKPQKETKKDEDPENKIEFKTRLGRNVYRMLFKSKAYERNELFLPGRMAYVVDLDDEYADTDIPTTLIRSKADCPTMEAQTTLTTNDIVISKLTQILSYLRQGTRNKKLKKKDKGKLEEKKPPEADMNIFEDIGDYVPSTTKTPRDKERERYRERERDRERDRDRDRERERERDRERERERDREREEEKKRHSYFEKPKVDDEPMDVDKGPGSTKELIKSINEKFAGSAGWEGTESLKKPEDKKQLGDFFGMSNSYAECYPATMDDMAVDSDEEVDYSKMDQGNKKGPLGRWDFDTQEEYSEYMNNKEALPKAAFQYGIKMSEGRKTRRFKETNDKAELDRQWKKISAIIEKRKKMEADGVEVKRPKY
UniProt P56703, residues 22-355: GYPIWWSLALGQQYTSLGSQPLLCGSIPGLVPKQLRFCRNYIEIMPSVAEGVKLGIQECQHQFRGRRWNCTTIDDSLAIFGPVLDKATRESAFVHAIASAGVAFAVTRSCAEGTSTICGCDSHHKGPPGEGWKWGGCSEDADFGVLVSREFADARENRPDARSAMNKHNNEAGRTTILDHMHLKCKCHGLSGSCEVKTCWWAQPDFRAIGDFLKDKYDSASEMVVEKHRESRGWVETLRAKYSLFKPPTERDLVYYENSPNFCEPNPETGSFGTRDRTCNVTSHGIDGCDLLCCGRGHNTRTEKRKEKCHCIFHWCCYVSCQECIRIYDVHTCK
UniProt P0DMV8: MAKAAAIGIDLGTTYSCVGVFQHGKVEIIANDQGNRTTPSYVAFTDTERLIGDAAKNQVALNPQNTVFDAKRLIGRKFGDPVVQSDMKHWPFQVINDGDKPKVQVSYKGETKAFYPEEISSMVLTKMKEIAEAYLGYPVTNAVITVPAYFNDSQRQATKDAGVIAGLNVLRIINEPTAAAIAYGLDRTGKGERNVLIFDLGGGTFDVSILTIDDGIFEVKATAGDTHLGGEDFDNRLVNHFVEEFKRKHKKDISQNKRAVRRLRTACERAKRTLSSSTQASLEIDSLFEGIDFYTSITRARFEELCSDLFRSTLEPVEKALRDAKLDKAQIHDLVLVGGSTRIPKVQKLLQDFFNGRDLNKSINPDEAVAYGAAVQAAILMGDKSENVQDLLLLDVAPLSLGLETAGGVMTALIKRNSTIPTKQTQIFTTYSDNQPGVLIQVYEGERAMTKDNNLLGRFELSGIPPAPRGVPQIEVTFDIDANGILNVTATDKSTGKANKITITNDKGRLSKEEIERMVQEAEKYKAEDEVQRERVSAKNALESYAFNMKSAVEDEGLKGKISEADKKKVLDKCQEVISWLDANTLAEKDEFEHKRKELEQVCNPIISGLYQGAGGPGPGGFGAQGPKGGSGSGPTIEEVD
UniProt O43143: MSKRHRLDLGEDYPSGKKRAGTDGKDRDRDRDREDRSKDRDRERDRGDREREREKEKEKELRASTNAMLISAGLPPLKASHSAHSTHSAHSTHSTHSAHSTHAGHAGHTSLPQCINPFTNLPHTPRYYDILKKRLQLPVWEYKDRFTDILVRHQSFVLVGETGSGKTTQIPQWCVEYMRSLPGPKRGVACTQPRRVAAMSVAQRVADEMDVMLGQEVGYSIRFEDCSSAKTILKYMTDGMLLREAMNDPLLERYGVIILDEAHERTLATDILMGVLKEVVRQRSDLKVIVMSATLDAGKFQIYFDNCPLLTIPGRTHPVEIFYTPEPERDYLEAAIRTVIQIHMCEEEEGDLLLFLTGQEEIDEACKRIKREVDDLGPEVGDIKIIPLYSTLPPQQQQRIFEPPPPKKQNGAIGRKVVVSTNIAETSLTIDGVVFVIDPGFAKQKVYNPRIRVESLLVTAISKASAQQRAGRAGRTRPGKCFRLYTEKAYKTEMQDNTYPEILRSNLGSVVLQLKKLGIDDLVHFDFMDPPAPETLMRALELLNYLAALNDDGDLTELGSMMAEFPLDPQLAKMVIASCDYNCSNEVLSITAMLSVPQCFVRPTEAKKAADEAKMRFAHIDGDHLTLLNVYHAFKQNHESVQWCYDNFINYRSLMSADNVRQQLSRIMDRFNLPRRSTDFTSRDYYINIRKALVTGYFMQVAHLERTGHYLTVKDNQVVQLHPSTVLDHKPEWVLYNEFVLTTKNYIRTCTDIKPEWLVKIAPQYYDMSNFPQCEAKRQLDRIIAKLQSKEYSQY
UniProt P07942, residues 22-1786: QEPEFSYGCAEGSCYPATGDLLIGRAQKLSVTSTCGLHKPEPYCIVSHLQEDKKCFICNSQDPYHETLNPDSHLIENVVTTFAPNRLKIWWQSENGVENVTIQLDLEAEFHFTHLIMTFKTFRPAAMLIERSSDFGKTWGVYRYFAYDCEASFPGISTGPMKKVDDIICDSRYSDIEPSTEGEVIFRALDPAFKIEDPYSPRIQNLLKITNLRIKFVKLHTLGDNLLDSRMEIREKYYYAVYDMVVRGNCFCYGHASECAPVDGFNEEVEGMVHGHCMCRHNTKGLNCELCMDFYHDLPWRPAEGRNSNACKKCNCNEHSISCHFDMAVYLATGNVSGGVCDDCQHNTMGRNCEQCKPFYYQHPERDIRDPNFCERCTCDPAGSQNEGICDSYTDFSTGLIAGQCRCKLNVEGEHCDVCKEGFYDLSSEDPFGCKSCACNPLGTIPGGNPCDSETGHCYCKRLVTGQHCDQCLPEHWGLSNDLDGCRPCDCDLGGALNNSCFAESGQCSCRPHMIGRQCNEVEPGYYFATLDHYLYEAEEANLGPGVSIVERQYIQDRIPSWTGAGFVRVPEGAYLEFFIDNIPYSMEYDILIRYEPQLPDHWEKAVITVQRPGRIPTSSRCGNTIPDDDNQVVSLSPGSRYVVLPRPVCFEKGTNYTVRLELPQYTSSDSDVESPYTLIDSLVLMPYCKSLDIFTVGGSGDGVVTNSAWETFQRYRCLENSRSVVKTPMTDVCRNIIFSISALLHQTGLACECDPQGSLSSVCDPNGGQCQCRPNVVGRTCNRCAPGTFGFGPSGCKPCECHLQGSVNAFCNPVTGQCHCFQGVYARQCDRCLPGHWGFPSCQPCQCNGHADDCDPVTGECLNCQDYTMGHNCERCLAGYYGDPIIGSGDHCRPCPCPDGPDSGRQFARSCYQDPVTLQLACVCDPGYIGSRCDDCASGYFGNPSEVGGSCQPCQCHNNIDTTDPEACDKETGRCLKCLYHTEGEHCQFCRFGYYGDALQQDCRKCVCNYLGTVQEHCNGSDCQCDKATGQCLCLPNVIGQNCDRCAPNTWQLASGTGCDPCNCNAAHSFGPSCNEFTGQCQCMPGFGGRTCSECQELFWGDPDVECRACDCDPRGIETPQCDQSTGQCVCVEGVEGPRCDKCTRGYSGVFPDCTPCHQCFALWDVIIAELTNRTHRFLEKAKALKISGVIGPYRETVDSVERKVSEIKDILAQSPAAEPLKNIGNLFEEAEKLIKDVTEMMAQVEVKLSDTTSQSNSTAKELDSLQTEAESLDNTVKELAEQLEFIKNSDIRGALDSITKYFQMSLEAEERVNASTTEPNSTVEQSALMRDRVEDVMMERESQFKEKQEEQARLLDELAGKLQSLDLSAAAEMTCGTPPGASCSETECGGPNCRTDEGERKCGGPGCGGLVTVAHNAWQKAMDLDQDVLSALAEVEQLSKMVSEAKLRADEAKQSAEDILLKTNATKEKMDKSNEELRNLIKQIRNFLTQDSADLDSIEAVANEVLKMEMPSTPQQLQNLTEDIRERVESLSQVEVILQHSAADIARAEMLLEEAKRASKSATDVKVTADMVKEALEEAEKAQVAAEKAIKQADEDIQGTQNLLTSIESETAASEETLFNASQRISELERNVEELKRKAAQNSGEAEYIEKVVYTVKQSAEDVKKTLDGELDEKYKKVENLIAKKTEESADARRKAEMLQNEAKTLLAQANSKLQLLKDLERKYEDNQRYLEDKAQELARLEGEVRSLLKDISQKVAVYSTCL

molecular target: His6-IK (Protein RED) (human) (UniProt Q13123); assay: affinity purification with mass spectrometry; two steps: His6-IK from lysate of transfected HEK293K cells held on Ni2+-IDA-agarose (4°C overnight), eluted with 300 mM imidazole, then immunoprecipitated with anti-IK antibody (control IgG beside it) on protein G-agarose; SDS-PAGE, Coomassie Blue, gel areas analysed by mass spectrometry

binding	Molecule
binds	Proto-oncogene Wnt-3 (from UniProt P56703 22-355)
binds	Heat shock 70 kDa protein 1A/1B (from UniProt P0DMV8 1-641)
binds	Putative pre-mRNA-splicing factor ATP-dependent RNA helicase DHX15 (from UniProt O43143 1-795)
binds	Laminin subunit beta-1 (from UniProt P07942 22-1786)

molecular target: His6-IK (Protein RED) (human) (UniProt Q13123); assay: as above; remark: another data set of the same source

binding	Molecule
binds	Isoform Long of 52KD repressor of the inhibitor of the protein kinase (protein, UniProt O43422 1-761) MPNFCAAPNCTRKSTQSDLAFFRFPRDPARCQKWVENCRRADLEDKTPDQLNKHYRLCAKHFETSMICRTSPYRTVLRDNAIPTIFDLTSHLNNPHSRHRKRIKELSEDEIRTLKQKKIDETSEQEQKHKETNNSNAQNPSEEEGEGQDEDILPLTLEEKENKEYLKSLFEILILMGKQNIPLDGHEADEIPEGLFTPDNFQALLECRINSGEEVLRKRFETTAVNTLFCSKTQQRQMLEICESCIREETLREVRDSHFFSIITDDVVDIAGEEHLPVLVRFVDESHNLREEFIGFLPYEADAEILAVKFHTMITEKWGLNMEYCRGQAYIVSSGFSSKMKVVASRLLEKYPQAIYTLCSSCALNMWLAKSVPVMGVSVALGTIEEVCSFFHRSPQLLLELDNVISVLFQNSKERGKELKEICHSQWTGRHDAFEILVELLQALVLCLDGINSDTNIRWNNYIAGRAFVLCSAVSDFDFIVTIVVLKNVLSFTRAFGKNLQGQTSDVFFAAGSLTAVLHSLNEVMENIEVYHEFWFEEATNLATKLDIQMKLPGKFRRAHQGNLESQLTSESYYKETLSVPTVEHIIQELKDIFSEQHLKALKCLSLVPSVMGQLKFNTSEEHHADMYRSDLPNPDTLSAELHCWRIKWKHRGKDIELPSTIYEALHLPDIKFFPNVYALLKVLCILPVMKVENERYENGRKRLKAYLRNTLTDQRSSNLALLNINFDIKHDLDLMVDTYIKLYTSKSELPTDNSETVENT
binds	Isoform 1 of Interleukin-25 (protein, UniProt Q9H293 33-177) YSHWPSCCPSKGQDTSEELLRWSTVPVPPLEPARPNRHPESCRASEDGPLNSRAISPWRYELDRDLNRLPQDLYHARCLCPHCVSLQTGSHMDPRGNSELLYHNQTVFYRRPCHGEKGTHKGYCLERRLYRVSLACVCVRPRVMG
binds	Zinc finger protein 518B (protein, UniProt Q9C0D4 1-1074) MKDIGQQLYTTHLNGGHNSLTMSPKQPDANGAPRPNRQEAQTLLYQGSEAEAAMMTIATCAKCKSVHKISLQDLQKGTGKDGMYVCFQCSLGAAPPNFHFVSNNSSATHVGNKTENFSSSVNSKFKVRNFKPGKYYCDKCRFSTKDPLQYKKHTLQHEEIKFICSHCSYISYTKGEFQRHLVKHTGIFPYQCEYCDYGAIRNDYIVKHTKRVHERAGAKRPVKAVAKLEPKRTGTSKQNPELLKASNPRTTFQNKWSDQLSGFSLHANKDKMHNIMLLPEPKEYQKDVVCIPNKMTLSEPNEVNLFENKNVEVEVLSPAKEPVQPGMPLTVVAPAELVVPANCLAQLIDVKVVNGTQQLVLKLFPLEENNCLEAGRDNGGNSERMVKEKGSNEQEKVLSAEKTKSLTVDGNVGKLVGIDSFQPSVQKQLKNVKWVRSYDFIMPNSSVHNNGKSFINSETIEDFQKKNNLYPHRTAFPSVALKGHSLASVFKNSVLRSLGAASNPFPYKAAVCFAESGRNLHSSSQQLLPFAASPATCSFSGEKGLLPVSENDLESTSKVNIPVKVVSSNRKQEDNQTEEHKAVSTVGQISSQHKSEYLHINITGEDRSQQPGDKPLELKNSERTNNTNDGPVISSVFSLSSGSENVPEGIKWNSSTSKIKSIELLRRKIAQLIESCGKPSSLASNSAHRRSVGQASKGTSKATSEGIQEINVSLTGLGHSTGTLQKPPNDGGITGNRQLTHQQIYPHFADGSNRKTKSRVARKAHVATPVLIPKGAVLRVLNSSENAHIIEATCEAPVSIPCSERQLIKPVPFCPVRQADSDLQPLRSERGPIDMSPNIETPLRPKLRKESAVCSTIHRKTGLLYGQQGSSELNKQGRLLSRSLSISRNKTKQVHLSRKKNKIQAEPSRCLKDPSIFQVARQLRLIAAKPDQLIKCPRRNQPVIVLNHPDVDSPEVTNVMKVINKYKGNVLKVVLSERTRCQLGIRRHHVRLTYQNAEEASQIKRQMMLKMKLKKVHKNNYQVVDSLPDDSSQCVFKCWFCGRLYEDQEEWMSHGQRHLIEATRDWDVLSSKGK
binds	Zinc finger and SCAN domain-containing protein 5B (protein, UniProt A6NJL1 1-495) MAANWTLSWGQGGPCNSPGSDTPRSVASPETQLGNHDRNPETWHMNFRMFSCPEESDPIQALRKLTELCHLWLRPDLHTKEQILDMLVMEQFMISMPQELQVLVKVNGVQSCKDLEDLLRNNRRPKKWSIVNLLGKEYLMLNSDVEMAEAPASVRDDPRDVSSQWASSVNQMHPGTGQARREQQILPRVAALSRRQGEDFLLHKSIDVTGDPNSPRPKQTLEKDLKENREENPGLSSPEPQLPKSPNLVRAKEGKEPQKRASVENVDADTPSACVVEREALTHSGNRGDALNLSSPKRSKPDASSISQEEPQGEATPVGNRESPGQAEINPVHSPGPAGPVSHPDGQEAKALPPFACDVCNKSFKYFSQLSIHRRSHTGDRPFQCDLCRKRFLQPSDLRVHQRVHTGERPYMCDVCQKRFAHESTLQGHKRIHTGERPFKCKYCSKVFSHKGNLNVHQRTHSGEKPYKCPTCQKAFRQLGTFKRHLKTHRETTSQ

These are yes or no findings as the source states them, for the method shown. In cells and extracts the contact can be indirect. Here binding means that the protein was enriched with, or labelled near, the bait; the list need not be complete.
